# According to the supplement of paper PMC8291772:
# Chains of the proteins cited; added tags and fusions are not shown. Lines headed by an entry give the natural chain unless they say otherwise; changes in a name come on top.
# UniProt P06526: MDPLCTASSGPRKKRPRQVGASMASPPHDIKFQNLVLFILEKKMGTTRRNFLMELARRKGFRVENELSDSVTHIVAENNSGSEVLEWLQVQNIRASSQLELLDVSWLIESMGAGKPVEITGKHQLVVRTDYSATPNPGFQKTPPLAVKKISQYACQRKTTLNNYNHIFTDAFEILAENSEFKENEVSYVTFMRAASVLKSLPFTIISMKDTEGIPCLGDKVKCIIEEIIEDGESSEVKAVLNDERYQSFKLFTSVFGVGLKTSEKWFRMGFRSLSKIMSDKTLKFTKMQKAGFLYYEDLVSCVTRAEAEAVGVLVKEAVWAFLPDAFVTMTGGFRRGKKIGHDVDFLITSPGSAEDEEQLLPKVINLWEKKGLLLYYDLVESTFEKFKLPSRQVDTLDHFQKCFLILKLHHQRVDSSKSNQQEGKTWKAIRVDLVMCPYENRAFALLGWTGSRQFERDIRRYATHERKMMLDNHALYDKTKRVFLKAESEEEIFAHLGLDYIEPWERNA
# ± gives the standard error. The list shows a part of the results. Single values are uncertain here, since repeats match poorly.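 The library held every possible DNA sequence from one to five nucleotides long. General ability to extend was judged against a limit of the blocked-version mean plus three standard deviations, and the probe detects only chains extended by at least seven dT.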
# Target: terminal deoxynucleotidyl transferase (calf thymus) (UniProt P06526)
# Assay: TdT poly-dT extension signal (Cy3 hybridisation fluorescence, uncapped minus capped) (fluorescence a.u.); higher = more efficient initiation of TdT extension
# Conditions: initiator chemistry: D-DNA, free 3'-OH (5'-tethered via HEG linker)
# Experimental: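 All mono- to pentamer initiator sequences were made by photolithographic in situ synthesis (reverse 5'->3' direction) on glass on a single hexaethylene glycol linker. Each was made in uncapped and DMTr-dT-capped versions, about 11 replicate features each. Arrays were extended with calf thymus TdT (0.2 U/uL) and 100 uM dTTP in TdT buffer with 0.25 mM CoCl2 for 120 min at 37 C, then hybridised with an rA18-Cy3 probe at 4 C and scanned at 532 nm. The value is the mean uncapped signal minus the mean capped signal of the same sequence.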
row,Sequence,TdT poly-dT extension signal
1,TCCCT,3250 ± 530
2,GAGTC,2910 ± 560
3,TGTCC,3120 ± 200
4,ACAG,3930 ± 300
5,CTAGT,5030 ± 260
6,CACCG,3580 ± 390
7,TTACT,2900 ± 310
8,TGTTT,4380 ± 240
9,AAAC,2880 ± 280
10,TTACC,2900 ± 240
11,CAAGG,4700 ± 240
12,TTTTG,3570 ± 370
13,AAAAT,3610 ± 420
14,GGGGG,5010 ± 560
15,TCTTA,3460 ± 390
16,GCCAC,2940 ± 430
17,AGATA,3320 ± 360
18,CAGTA,3150 ± 320
19,CTTCC,2940 ± 230
20,CCTAA,3290 ± 490
21,AAAAG,3980 ± 540
22,GAGAT,3770 ± 420
23,ATGGC,3480 ± 270
24,CTGTA,3930 ± 480

row,Sequence,TdT poly-dT extension signal
1,ATTTG,3430 ± 350
2,CTGGA,2810 ± 560
3,ACGCC,3040 ± 380
4,CATCG,3450 ± 430
5,TGCCG,3820 ± 200
6,CGGGA,4650 ± 420
7,GGAAT,3450 ± 440
8,CTTC,3400 ± 250
9,GGCC,3350 ± 310
10,GTGCC,2600 ± 250
11,ACCTG,3520 ± 260
12,CGTCG,2910 ± 390
13,TAGCT,3450 ± 280
14,TAAT,4070 ± 260
15,AATTG,4300 ± 370
16,CGCG,3240 ± 450
17,GTAAG,3930 ± 440
18,ACCT,3520 ± 400
19,GATCA,3710 ± 250
20,GCAGT,3720 ± 400
21,GACGA,4080 ± 310
22,AATGC,2990 ± 300
23,GACGG,3800 ± 530
24,GAAC,2420 ± 280

row,Sequence,TdT poly-dT extension signal
1,CGAAG,3940 ± 480
2,ATGC,3010 ± 290
3,CGACC,3270 ± 300
4,TGAC,2420 ± 330
5,ACAT,3500 ± 240
6,GACGT,3680 ± 340
7,CTACT,3340 ± 280
8,GTGGC,2690 ± 390
9,CCTTG,3430 ± 380
10,ACGG,4170 ± 340
11,GCTCC,3110 ± 290
12,ATCTT,3670 ± 400
13,GGACC,3370 ± 340
14,CCGAG,3790 ± 460
15,CATAT,3400 ± 450
16,AAGC,2840 ± 440
17,TAGTT,3860 ± 720
18,CGGA,3570 ± 500
19,CTAGG,3000 ± 470
20,GCCT,3660 ± 280
21,GTCCG,3410 ± 240
22,CGCTC,3340 ± 330
23,ATGTC,3280 ± 320
24,AAACT,2100 ± 290

row,Sequence,TdT poly-dT extension signal
1,GCGGG,5120 ± 310
2,ATTAT,3480 ± 290
3,GGATT,3470 ± 390
4,TATA,3110 ± 390
5,ACACT,3760 ± 600
6,AAGGT,3730 ± 300
7,TCAAG,3710 ± 520
8,ACTC,3030 ± 340
9,GCGGT,3760 ± 420
10,GCGAC,4190 ± 340
11,AGGAG,4330 ± 420
12,TCGGA,3430 ± 380
13,GTTCC,3140 ± 250
14,GTTAA,4000 ± 360
15,TTAAT,4950 ± 520
16,AGAGT,3970 ± 420
17,CTCT,3060 ± 290
18,GTGGT,3600 ± 380
19,TCATG,3140 ± 430
20,TTGA,2420 ± 420
21,TTTTT,4050 ± 520
22,CGTAC,4230 ± 450
23,GATAG,4580 ± 310
24,TTAC,2790 ± 160

# Retrieved one by one from the entries so far (2):
row,Sequence,TdT poly-dT extension signal
5,ACACT,3760 ± 600
24,TTAC,2790 ± 160

# Continuation:

row,Sequence,TdT poly-dT extension signal
1,GAAAA,5290 ± 420
2,CACT,2930 ± 410
3,TACTG,3980 ± 390
4,CCATC,2950 ± 430
5,GACT,3340 ± 380
6,GCCAT,4520 ± 620
7,ATAGG,3530 ± 460
8,TCCG,3910 ± 370
9,TGAGT,3800 ± 430
10,GGGC,3610 ± 430
11,ATATT,4270 ± 170
12,CGTCA,3270 ± 420
13,TGCAC,3280 ± 380
14,GCTAT,3540 ± 400
15,TGGAG,3910 ± 440
16,TCCA,3930 ± 370
17,GCTAC,3610 ± 530
18,CGTTT,4330 ± 330
19,TGTGA,3700 ± 350
20,ACCCA,4600 ± 230
21,GTATG,3640 ± 430
22,CTGTG,4470 ± 810
23,ACAGT,4590 ± 210
24,CTACC,2730 ± 290

row,Sequence,TdT poly-dT extension signal
1,AGGAA,3320 ± 500
2,TCGAG,3960 ± 500
3,TAGCG,3870 ± 420
4,CGTAG,3280 ± 430
5,CAGTT,4480 ± 460
6,TTAAA,5160 ± 220
7,GCTG,2840 ± 370
8,TAGAT,3310 ± 400
9,CCCCA,3340 ± 430
10,AATAG,3880 ± 450
11,TATTT,5470 ± 880
12,GCCC,2960 ± 410
13,CAGC,3700 ± 570
14,GACAC,3570 ± 280
15,GGGCC,3660 ± 240
16,GGACT,3050 ± 290
17,GAAGG,4350 ± 700
18,AATC,3420 ± 280
19,TCTAA,4410 ± 370
20,GGTA,3200 ± 400
21,TATGA,3730 ± 420
22,TGAGC,3670 ± 690
23,GCGTA,3990 ± 350
24,GGAC,2770 ± 390

row,Sequence,TdT poly-dT extension signal
1,GCCGT,3830 ± 380
2,ACAGG,4360 ± 440
3,GCTAG,3080 ± 550
4,ACGCG,3280 ± 360
5,TTTTA,4110 ± 450
6,TGGCA,4020 ± 480
7,ACACA,3580 ± 260
8,TGTCA,4230 ± 290
9,CTGCT,3100 ± 470
10,AACTG,3330 ± 220
11,AGAAA,4080 ± 420
12,ACGGC,4580 ± 400
13,AGTT,3930 ± 310
14,GTTC,3090 ± 320
15,CAACG,4210 ± 440
16,ATGTT,4000 ± 340
17,CAACA,3430 ± 420
18,TTGAG,3530 ± 470
19,TACCC,2640 ± 280
20,AGCAA,3750 ± 430
21,GCAAA,3800 ± 510
22,CGACA,2910 ± 430
23,TTTCC,2890 ± 280
24,TACC,3390 ± 230

# Reformatted with bars between the fields: entries from further up
row | Sequence | TdT poly-dT extension signal
5 | TGCCG | 3820 ± 200
6 | CGGGA | 4650 ± 420
7 | GGAAT | 3450 ± 440

# Single entries from above:
# Value for TTGAG under TdT poly-dT extension signal: 3530 ± 470
# Value for ACACA under TdT poly-dT extension signal: 3580 ± 260
# Value for CAACG under TdT poly-dT extension signal: 4210 ± 440
# Value for ACGCG under TdT poly-dT extension signal: 3280 ± 360
# Value for GCCGT under TdT poly-dT extension signal: 3830 ± 380

# Carrying on:

row,Sequence,TdT poly-dT extension signal
1,AGATC,2930 ± 310
2,GAACG,3610 ± 360
3,GGAGC,3830 ± 400
4,GTTGC,3240 ± 300
5,AATAC,2680 ± 340
6,ACCGA,3470 ± 460
7,TGGA,2880 ± 450
8,ACTAC,2470 ± 390
9,GGACA,3530 ± 530
10,GAACC,3020 ± 320
11,CGAC,3320 ± 390
12,CGGTG,4970 ± 570
13,TCGGG,5020 ± 470
14,CGGAT,3360 ± 530
15,CATCT,3920 ± 140
16,AGGG,3920 ± 420
17,GCGCC,3420 ± 340
18,TTTC,2810 ± 380
19,GTCCT,3280 ± 180
20,CCAG,4100 ± 320
21,AGTC,2940 ± 290
22,GGCCC,3590 ± 270
23,GGAG,3730 ± 400
24,ATGT,3690 ± 380

row,Sequence,TdT poly-dT extension signal
1,GGCG,3600 ± 450
2,CAGGC,3210 ± 380
3,GTGGA,3810 ± 400
4,CGTTG,3490 ± 420
5,CGGT,3580 ± 430
6,GTAGA,4270 ± 200
7,GCCTG,4540 ± 630
8,GACTG,3530 ± 400
9,GGTTA,3800 ± 440
10,AAGGA,3470 ± 490
11,CCTCT,3040 ± 400
12,CTTTC,3680 ± 510
13,TACAT,3620 ± 370
14,TTCAG,4840 ± 550
15,ACCGT,4410 ± 210
16,TCCTC,2300 ± 220
17,TATTG,3410 ± 290
18,AGGCA,3090 ± 460
19,CCTGT,4260 ± 380
20,GCGAG,4470 ± 530
21,ACGAG,4610 ± 690
22,TTGTC,2960 ± 340
23,GAAGC,3280 ± 500
24,ATGAA,4810 ± 440
